Data published in paper PMC11055869.
Results are given in words; binding and its absence hold for the method and conditions named. Binding seen in cells or lysates may run through a third protein. A yes stands for co-enrichment or nearness to the bait. Other partners may have been found.

Amino acid sequences for entries named in this document (tags omitted).
UniProt Q99JR8: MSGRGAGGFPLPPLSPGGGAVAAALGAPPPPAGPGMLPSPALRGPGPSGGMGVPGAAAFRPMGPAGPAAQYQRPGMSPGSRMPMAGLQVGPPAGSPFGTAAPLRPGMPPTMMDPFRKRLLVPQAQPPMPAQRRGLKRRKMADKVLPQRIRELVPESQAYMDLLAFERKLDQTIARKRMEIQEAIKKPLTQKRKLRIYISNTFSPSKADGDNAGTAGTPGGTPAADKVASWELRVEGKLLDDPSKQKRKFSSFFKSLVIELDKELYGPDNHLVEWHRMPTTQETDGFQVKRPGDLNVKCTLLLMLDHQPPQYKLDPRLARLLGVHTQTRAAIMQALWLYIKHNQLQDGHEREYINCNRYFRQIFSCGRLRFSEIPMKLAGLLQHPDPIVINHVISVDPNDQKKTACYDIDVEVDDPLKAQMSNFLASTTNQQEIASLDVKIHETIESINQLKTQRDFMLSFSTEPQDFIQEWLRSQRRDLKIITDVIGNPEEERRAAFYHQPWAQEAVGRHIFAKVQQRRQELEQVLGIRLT
UniProt Q3TKT4: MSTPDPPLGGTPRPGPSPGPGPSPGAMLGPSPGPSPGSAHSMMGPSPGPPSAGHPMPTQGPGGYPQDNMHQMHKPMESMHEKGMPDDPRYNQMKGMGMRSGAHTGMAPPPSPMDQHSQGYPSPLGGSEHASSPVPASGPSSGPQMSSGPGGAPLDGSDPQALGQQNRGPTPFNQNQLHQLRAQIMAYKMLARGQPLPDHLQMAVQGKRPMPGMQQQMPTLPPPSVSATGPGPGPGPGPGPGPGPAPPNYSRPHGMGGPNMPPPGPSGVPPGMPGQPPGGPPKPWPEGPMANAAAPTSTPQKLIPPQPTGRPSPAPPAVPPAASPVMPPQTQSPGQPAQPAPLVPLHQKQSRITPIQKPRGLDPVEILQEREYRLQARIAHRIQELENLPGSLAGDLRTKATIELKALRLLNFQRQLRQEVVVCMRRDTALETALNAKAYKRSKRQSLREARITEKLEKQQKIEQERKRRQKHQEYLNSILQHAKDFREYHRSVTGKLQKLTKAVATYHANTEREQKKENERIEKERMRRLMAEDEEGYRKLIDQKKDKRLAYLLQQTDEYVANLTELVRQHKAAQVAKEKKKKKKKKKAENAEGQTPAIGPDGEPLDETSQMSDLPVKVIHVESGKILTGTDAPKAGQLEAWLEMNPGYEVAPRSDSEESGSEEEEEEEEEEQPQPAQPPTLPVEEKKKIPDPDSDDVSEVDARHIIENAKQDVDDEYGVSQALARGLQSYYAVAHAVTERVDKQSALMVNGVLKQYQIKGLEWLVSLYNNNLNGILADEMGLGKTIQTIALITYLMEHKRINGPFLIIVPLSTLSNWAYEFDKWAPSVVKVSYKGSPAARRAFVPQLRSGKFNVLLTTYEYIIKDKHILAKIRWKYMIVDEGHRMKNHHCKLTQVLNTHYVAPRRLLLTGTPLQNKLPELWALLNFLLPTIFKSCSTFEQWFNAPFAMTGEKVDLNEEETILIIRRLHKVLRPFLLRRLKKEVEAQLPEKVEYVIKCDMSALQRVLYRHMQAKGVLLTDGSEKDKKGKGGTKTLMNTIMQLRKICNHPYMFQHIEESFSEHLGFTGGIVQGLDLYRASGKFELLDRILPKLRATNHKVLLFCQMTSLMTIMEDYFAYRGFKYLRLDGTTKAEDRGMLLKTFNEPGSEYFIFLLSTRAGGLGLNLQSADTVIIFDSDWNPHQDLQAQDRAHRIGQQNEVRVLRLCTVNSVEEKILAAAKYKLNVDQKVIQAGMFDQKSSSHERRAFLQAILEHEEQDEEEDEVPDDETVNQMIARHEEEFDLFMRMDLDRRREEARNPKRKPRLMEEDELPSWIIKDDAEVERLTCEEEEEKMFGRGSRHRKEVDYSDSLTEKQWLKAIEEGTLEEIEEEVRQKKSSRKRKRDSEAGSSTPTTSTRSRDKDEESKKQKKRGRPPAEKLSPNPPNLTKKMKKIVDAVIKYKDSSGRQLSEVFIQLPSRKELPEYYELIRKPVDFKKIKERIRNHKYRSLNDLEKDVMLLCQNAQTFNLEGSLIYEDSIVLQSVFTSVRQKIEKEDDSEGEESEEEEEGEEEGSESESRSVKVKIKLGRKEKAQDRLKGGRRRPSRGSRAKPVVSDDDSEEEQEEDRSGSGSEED
UniProt P56546: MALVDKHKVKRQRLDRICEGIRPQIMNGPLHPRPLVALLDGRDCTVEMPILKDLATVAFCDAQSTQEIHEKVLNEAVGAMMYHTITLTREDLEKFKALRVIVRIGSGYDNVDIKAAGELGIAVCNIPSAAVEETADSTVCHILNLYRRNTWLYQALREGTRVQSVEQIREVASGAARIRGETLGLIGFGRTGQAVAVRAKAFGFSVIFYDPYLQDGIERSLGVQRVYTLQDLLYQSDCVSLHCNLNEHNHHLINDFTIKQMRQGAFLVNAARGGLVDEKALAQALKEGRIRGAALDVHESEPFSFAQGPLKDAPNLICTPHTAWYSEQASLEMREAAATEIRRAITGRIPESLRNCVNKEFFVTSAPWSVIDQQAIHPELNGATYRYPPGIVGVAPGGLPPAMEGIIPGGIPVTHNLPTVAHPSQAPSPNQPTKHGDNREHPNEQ
UniProt Q91ZW3: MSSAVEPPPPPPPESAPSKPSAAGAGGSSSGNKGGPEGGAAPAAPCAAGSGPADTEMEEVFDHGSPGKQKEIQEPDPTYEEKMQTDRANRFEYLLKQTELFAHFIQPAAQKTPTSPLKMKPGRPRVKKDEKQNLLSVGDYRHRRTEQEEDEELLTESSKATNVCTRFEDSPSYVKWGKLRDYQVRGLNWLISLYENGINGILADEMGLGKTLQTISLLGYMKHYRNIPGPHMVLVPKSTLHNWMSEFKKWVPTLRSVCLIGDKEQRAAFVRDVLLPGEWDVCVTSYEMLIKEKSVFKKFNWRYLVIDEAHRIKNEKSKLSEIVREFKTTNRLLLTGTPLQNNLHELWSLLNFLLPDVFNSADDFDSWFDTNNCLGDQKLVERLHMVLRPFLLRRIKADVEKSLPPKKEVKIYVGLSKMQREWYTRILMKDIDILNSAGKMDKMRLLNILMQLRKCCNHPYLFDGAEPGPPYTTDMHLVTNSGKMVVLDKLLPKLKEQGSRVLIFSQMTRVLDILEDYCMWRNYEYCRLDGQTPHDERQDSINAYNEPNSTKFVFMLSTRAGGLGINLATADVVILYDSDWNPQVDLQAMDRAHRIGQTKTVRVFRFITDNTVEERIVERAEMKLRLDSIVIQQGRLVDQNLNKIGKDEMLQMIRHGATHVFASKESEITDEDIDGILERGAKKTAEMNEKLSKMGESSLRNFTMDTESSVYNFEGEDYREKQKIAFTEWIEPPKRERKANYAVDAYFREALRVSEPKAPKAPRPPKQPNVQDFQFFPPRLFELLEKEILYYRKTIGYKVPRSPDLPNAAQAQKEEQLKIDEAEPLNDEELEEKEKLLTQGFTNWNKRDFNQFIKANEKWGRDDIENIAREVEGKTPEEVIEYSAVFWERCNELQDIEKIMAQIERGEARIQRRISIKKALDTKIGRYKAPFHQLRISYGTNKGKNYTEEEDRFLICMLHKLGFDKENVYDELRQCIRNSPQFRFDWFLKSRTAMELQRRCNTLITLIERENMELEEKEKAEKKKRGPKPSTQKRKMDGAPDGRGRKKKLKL
UniProt Q8CHY6: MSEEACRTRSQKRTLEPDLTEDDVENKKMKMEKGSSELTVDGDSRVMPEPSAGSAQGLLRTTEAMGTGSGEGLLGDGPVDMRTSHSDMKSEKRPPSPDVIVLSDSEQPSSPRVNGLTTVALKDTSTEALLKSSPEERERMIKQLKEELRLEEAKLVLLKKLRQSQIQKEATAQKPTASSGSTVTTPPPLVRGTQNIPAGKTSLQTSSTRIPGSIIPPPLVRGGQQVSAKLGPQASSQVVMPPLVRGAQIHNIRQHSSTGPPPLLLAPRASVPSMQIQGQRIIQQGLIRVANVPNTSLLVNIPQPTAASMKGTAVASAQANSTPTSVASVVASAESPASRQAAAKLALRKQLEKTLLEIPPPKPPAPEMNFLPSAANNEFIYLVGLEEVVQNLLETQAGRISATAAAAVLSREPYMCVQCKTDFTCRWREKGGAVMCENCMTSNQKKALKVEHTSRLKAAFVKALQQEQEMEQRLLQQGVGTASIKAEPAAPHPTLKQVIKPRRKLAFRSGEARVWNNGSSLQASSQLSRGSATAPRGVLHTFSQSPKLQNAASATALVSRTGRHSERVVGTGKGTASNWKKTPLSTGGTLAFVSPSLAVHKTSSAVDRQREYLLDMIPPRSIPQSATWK

What follows are substances tested against T1, SATB2 (mouse (endogenous in colonic glands)) (UniProt Q8VI24) (assay: affinity purification with mass spectrometry; anti-SATB2 antibody on protein A/G magnetic beads; mouse proximal colon epithelial glands cross-linked with 2 mM DSG, lysed in 0.3 M RIPA buffer, 6 washes; gel region over 100 kDa analysed by LC-MS/MS; IgG control).
T1 sequence: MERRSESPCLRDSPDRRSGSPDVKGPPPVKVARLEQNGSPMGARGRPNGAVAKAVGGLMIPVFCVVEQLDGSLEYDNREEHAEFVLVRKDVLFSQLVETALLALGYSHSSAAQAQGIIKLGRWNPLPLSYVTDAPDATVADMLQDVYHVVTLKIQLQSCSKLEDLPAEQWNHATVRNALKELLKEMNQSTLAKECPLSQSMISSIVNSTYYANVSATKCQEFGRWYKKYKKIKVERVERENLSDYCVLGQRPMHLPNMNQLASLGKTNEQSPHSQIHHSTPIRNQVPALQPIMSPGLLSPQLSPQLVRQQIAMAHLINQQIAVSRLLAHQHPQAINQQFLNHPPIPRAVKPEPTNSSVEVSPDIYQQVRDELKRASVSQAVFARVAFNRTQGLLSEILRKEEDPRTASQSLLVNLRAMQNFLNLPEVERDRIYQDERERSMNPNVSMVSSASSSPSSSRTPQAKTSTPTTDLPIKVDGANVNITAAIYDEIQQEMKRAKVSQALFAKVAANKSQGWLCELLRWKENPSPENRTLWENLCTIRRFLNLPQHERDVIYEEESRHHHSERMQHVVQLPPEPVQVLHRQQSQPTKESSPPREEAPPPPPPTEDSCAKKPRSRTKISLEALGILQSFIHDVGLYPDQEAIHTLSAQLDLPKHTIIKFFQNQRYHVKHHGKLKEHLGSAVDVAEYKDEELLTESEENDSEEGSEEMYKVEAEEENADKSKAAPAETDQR

binding, binds:
SMARCD2 (from UniProt Q99JR8 1-531)
SMARCA4 (from UniProt Q3TKT4 1-1613)
CTBP2 (from UniProt P56546 1-445)
SMARCA5 (from UniProt Q91ZW3 1-1051)
GATAD2A (from UniProt Q8CHY6 1-629)
